# PubChem BioAssay AID1117319 (Southern Research Institute, 2015)
# By UniProt entry, the sequences of proteins in these tests, tags left out. Where a name states a change or a piece, a line headed by the entry shows the natural chain unless it says otherwise.
# UniProt P69720: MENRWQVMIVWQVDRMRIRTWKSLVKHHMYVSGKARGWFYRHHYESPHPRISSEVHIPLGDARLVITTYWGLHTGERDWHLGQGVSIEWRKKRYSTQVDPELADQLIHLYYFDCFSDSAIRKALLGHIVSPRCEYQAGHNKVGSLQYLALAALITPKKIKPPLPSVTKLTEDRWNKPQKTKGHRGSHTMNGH
# UniProt P69721: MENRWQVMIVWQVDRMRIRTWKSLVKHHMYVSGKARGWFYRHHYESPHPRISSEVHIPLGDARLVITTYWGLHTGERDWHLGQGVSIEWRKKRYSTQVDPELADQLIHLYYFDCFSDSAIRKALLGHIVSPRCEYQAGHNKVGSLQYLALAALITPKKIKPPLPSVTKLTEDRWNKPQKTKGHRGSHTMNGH
# UniProt P69722: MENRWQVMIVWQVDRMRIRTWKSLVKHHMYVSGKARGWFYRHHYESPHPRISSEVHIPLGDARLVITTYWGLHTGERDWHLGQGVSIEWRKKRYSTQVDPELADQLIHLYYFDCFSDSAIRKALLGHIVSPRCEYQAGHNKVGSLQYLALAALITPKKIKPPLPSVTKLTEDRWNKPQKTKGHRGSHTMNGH
# UniProt P69723: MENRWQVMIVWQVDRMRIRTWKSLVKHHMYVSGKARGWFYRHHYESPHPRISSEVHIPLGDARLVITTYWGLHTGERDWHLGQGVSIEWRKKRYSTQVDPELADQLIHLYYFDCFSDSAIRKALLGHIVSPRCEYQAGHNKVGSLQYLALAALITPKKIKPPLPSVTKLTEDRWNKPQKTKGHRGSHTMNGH
# UniProt Q9HC16: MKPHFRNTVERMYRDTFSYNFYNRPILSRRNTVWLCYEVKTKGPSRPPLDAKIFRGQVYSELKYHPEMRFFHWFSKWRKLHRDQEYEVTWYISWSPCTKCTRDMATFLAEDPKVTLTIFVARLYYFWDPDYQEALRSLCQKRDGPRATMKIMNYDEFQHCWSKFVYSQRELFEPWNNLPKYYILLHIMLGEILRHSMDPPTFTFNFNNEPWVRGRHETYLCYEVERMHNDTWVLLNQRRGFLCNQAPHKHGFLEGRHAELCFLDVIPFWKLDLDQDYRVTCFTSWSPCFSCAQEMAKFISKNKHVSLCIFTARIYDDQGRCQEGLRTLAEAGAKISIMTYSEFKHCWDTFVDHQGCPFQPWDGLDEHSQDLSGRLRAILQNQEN
# The whole screen tested about 260,000 compounds, of which about 1,500 (0.58%) were called active. The inconclusive results got no clear call from the source; some entries with a clear call stand among them for comparison.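 Rule for the calls: active = inhibition above a set limit at one or more doses, reproduced on every date tested; inconclusive = results disagree between test dates, or hit never tested in dose response; inactive = the rest.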
# Target: Virion infectivity factor (Human immunodeficiency virus type 1 group M subtype B (isolate BH10)) + Virion infectivity factor (Human immunodeficiency virus type 1 group M subtype B (isolate BRU/LAI)) + Virion infectivity factor (Human immunodeficiency virus type 1 group M subtype B (isolate PCV12)) + Virion infectivity factor (Human immunodeficiency virus type 1 group M subtype B (isolate HXB2)) + DNA dC->dU-editing enzyme APOBEC-3G (Homo sapiens) (UniProt P69720+P69721+P69722+P69723+Q9HC16)
# Test: inhibitors of Vif binding to APOBEC3G peptide, primary screen, biochemical, TR-FRET, GST-Vif 1-94, biotin-A3G peptide, dose response retest (AID 1117319);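 note: Vif residues 1-94 fused to GST binding biotinylated APOBEC3G peptide 110-148; 0% = full assay without inhibitor and 100% = GST in place of GST-Vif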
# Conditions: active compounds read high
row,Compound,inhibition
1,CCOC(=O)C1=C(C)N=c2s/c(=C/c3ccccc3)c(=O)n2C1c1ccc(OC)c(OC)c1 (stereo unspecified),inactive: 1.78%
2,Cc1ccc(NC(=S)N(Cc2cccc(Br)c2)CC2CCC(C(=O)O)CC2)cc1Cl (stereo unspecified),inconclusive: 34%
3,O=C(Cn1ccc(=O)[nH]c1=O)Nc1ccc(C(=O)O)c(O)c1,inconclusive: 43.9%
4,COC(=O)/C=C1\SC(=NC(=O)c2ccc(C)cc2)NC1=O,inconclusive: 38.2%
5,Cc1ccc(NC(=O)N(CCC(=O)O)Cc2ccccc2)cc1,inconclusive: 39.9%
6,Cc1ccccc1NC(=O)CN(C)S(=O)(=O)c1cccc2cccnc12,inconclusive: 61.5%
7,CCOC(=O)c1ccc(NC(=O)Nc2ncccc2C)cc1,inconclusive: 39.5%
8,COc1cc(NCCCC(C)N)c2ncccc2c1 (stereo unspecified),inconclusive: 61.2%
9,CN(C)CCCN=Cc1c(O)n(Cc2ccc3c(c2)OCO3)c(=O)c2ccccc12,inconclusive: 44.3%
10,Cc1c(NC(=O)CN2C(=O)NC(C)(c3ccccc3Cl)C2=O)c(=O)n(-c2ccccc2)n1C (stereo unspecified),inconclusive: 36%
11,O=C(COc1ccc(Br)cc1Cl)NC(=O)Nc1ccc2c(c1)OCCO2,inconclusive: 49.1%
12,O=C(CCN1C(=O)C2C3CCC(C3)C2C1=O)Nc1ccc([N+](=O)[O-])cc1 (stereo unspecified),inconclusive: 44.1%
13,CC(=O)N1c2c(cc(Br)cc2S(=O)(=O)NCc2cccnc2)CC1C (stereo unspecified),inconclusive: 60.8%
14,COc1ccccc1NC(=S)N(CCCN(C)C)Cc1cc2cc3c(cc2[nH]c1=O)OCO3,inconclusive: 55.1%
15,CCC(=O)N/C(=N\OCc1ccc(F)cc1)c1nonc1NC(=O)CC,inconclusive: 37.4%
16,COc1ccc(CCNC(=O)c2cnc3n(c2=O)CCS3)cc1OC,inconclusive: 38.5%
17,COC(=O)/C=C/c1ccccc1S(=O)(=O)N(Cc1ccccc1)Cc1ccco1,inconclusive: 33.5%
18,O=C(CN1C(=O)C2CC=C(Cl)CC2C1=O)NCc1ccccc1 (stereo unspecified),inconclusive: 31.2%
19,COC(=O)/C=C/c1ccc2c(c1)OCO2,inactive: 4.78%
20,Cc1cc(Cl)c(S(=O)(=O)N/N=C/c2ccc3c(c2)OCO3)c(Cl)c1,inconclusive: 62.4%
21,O=C(c1ccco1)N1c2ccccc2Sc2ccccc21,inconclusive: 34.4%
22,O=c1cc(N2CCCCC2)nc2n1CCCS2,inconclusive: 34.1%
23,NNC(=O)CCc1c[nH]c2ccccc12,inactive: 1.22%

row,Compound,inhibition
1,Cc1cc(C)n(C(=O)CNC(=O)C2COc3ccccc3O2)n1 (stereo unspecified),inconclusive: 38.5%
2,Cc1ccc(-n2cc(CN3CCNC(=O)CC3)c(-c3ccc(F)cc3)n2)cc1,inconclusive: 59.6%
3,CCOC(=O)C1CCCN(c2cc(=O)n(Cc3ccc(F)cc3)c(=O)[nH]2)C1 (stereo unspecified),inconclusive: 35.7%
4,O=C(NCCCn1ccnc1)Nc1ccc(Cl)cc1Cl,inconclusive: 43.4%
5,Cn1c(=O)n(C)c2cc(C(N)=O)ccc21,inconclusive: 47.7%
6,Cc1ccc(C2CC(c3ccccc3)=NN2C(=S)Nc2ccccc2)o1 (stereo unspecified),inconclusive: 55.8%
7,CCN(CC)c1ccc2cc(-c3nc4ccccc4[nH]3)c(=O)oc2c1,inconclusive: 34.4%
8,CC(=O)Nc1ccc(S(=O)(=O)N(C)c2ccc(OCC(=O)OCC(=O)N3CCCCC3)cc2)cc1,inconclusive: 37.8%
9,COc1ccc(-n2nccc2-c2nn(-c3cccc(OC)c3)c(=O)n(C)c2=O)cc1,inconclusive: 39.2%
10,Cc1ccc(NC(=O)CCNS(=O)(=O)c2cc(Br)cnc2N)cc1Cl,inactive: 5.11%
11,CC(C)CNC(=O)c1cccc(NC(=O)c2ccc(NC(=O)c3ccco3)cc2)c1,inconclusive: 55.4%
12,CNC(=O)Nc1ccccc1C(=O)NCc1ccccc1,inconclusive: 33.4%
13,O=C(NCc1ccc2c(c1)OCO2)C1CCCN1S(=O)(=O)c1ccc(F)cc1 (stereo unspecified),inconclusive: 34%
14,Cc1ccc2nc(-c3ccc(N)cc3)sc2c1,inconclusive: 51.4%
15,CCCSc1nnc(NC(=O)Nc2ccc(C)cc2)s1,inconclusive: 61.2%
16,O=C(NC1=NCCS1)c1cccc(OC(F)F)c1,inconclusive: 55.7%
17,CCOC(=O)c1ccc2c(c1)nc(C1CCN(S(=O)(=O)c3cccs3)CC1)n2CC,inconclusive: 40.8%
18,O=C(NCc1cccnc1)c1nn2cccnc2c1Cl,inactive: 14.7%
19,COc1cc(C2C3=C(CC(C)(C)CC3=O)OC3=C2C(=O)CC(C)(C)C3)cc([N+](=O)[O-])c1O,inconclusive: 33.7%
20,O=c1c2cn[nH]c2[nH]c(=S)n1-c1ccccc1F,inactive: -1.23%
21,O=C(NC12CC3CC(CC(C3)C1)C2)N(Cc1ccccc1)Cc1ccncc1,inactive: -2.12%
22,COc1ccc(/C=N/NC(=S)Nc2ccccc2)cc1COc1cccc(C)c1C,inconclusive: 33%
23,CC12CN3CC(C)(CN(C1)C3c1ccccc1Cl)C2O (stereo unspecified),inconclusive: 58.9%

# Five records picked at random from the list so far:
row,Compound,inhibition
18,O=C(NCc1cccnc1)c1nn2cccnc2c1Cl,inactive: 14.7%
12,CNC(=O)Nc1ccccc1C(=O)NCc1ccccc1,inconclusive: 33.4%
13,O=C(NCc1ccc2c(c1)OCO2)C1CCCN1S(=O)(=O)c1ccc(F)cc1 (stereo unspecified),inconclusive: 34%
8,CC(=O)Nc1ccc(S(=O)(=O)N(C)c2ccc(OCC(=O)OCC(=O)N3CCCCC3)cc2)cc1,inconclusive: 37.8%
20,O=c1c2cn[nH]c2[nH]c(=S)n1-c1ccccc1F,inactive: -1.23%

# The listing continues:

row,Compound,inhibition
1,CCC(C)NC(=O)Cn1c(=O)sc2ccccc21 (stereo unspecified),inconclusive: 34.4%
2,COc1ccc(-n2nc(C(=O)N3CCN(c4ccc(F)cc4)CC3)c3ccccc3c2=O)c(OC)c1,inconclusive: 58.3%
3,O=c1oc(-c2cccs2)nc2sc3c(c12)CCCC3,inconclusive: 57.8%
4,CC1(C)C(=O)OC(c2ccccc2)C(C)(C)C1=O (stereo unspecified),inconclusive: 48.6%
5,CC(C)[C@H](NC(=O)c1ccco1)C(=O)OCC(=O)c1ccc2c(c1)NC(=O)CO2,inactive: 30.8%
6,Cc1ccc(NC(=O)COC(=O)CN2CCSC2=O)cc1Cl,inactive: 7.83%
7,OCCN(CC#CC(O)(c1ccccc1)c1ccccc1)CCO,inconclusive: 52.4%
8,COC(=O)c1sc(NC(=O)c2cccc([N+](=O)[O-])c2)c(C(N)=O)c1C,inconclusive: 33.2%
9,O=C(COC(=O)c1ccc(S(=O)(=O)Nc2ccccc2)cc1)NCc1ccco1,inactive: 3.75%
10,CCN(CC)CCNC(=O)CCCNC(=O)Cn1cnc2sc(C)c(C)c2c1=O,inconclusive: 34%
11,O=C1C(=O)N(CCN2CCOCC2)C(c2ccccn2)/C1=C(/O)c1ccc(F)cc1 (stereo unspecified),inconclusive: 40.4%
12,Cc1cc(C)n(-c2ccc(C(=O)Nc3cccnc3)cc2)n1,inconclusive: 58.5%
13,CCc1ccc(NC(=S)Nc2cccc(OC)c2)cc1,inconclusive: 31.1%
14,CC1(c2ccc(Cl)cc2)NC(=O)N(CN2CCOCC2)C1=O (stereo unspecified),inconclusive: 63.2%
15,CCCCCSc1nnc2c(n1)OC(C)N(C(C)=O)c1ccccc1-2 (stereo unspecified),inconclusive: 49.2%
16,O=C(N1CCCCC1)N1CCC(c2nc3ccccc3[nH]2)CC1,inconclusive: 33.8%
17,Cc1ccc(/C=c2/sc3n(c2=O)CCCN=3)o1,inconclusive: 52.2%
18,COC(=O)[C@@]1(Cc2ccc(OC)cc2)[C@H]2c3cc(C(=O)N4CCCC4)n(CCN4CCNC4=O)c3C[C@H]2CN1C(=O)c1ccccc1,inconclusive: 36%
19,CCc1nnc(NC(=O)c2cc(-c3ccco3)nc3ccccc23)s1,inconclusive: 41.1%
20,O=C(N/N=C/c1ccccc1[N+](=O)[O-])c1ccc2nc[nH]c2c1,inconclusive: 52.5%
21,CCOC(=O)N1CCN(C(=O)CN(c2ccc(Cl)c(C(F)(F)F)c2)S(C)(=O)=O)CC1,inconclusive: 34.7%
22,Cc1cccc2sc(N(CCCN(C)C)C(=O)CN3C(=O)c4ccccc4C3=O)nc12,inconclusive: 34.3%
23,CCCSc1nc2[nH]ncc2c(=O)[nH]1,inconclusive: 38.5%

row,Compound,inhibition
1,Cc1c(S(=O)(=O)Nc2cccc(Cl)c2)c(=O)n(C)c(=O)n1C,inconclusive: 63%
2,O=C(OCc1nnc(-c2ccccc2)o1)c1ccc2c(c1)OCCO2,inconclusive: 12.9%
3,O=C(Nc1ccc2c(c1)OCO2)N1CCCc2ccccc21,inconclusive: 34%
4,CC(=O)c1ccc(OC(=O)c2ccc(Br)o2)cc1,inconclusive: 60.3%
5,Nc1ccc(C(=O)OCC(=O)NC2CCS(=O)(=O)C2)cc1[N+](=O)[O-] (stereo unspecified),inconclusive: 45.7%
6,COC(=O)c1ccc(Oc2nc(NC(C)C)nc(NC(C)C)n2)cc1,inconclusive: 48.5%
7,Cn1cnnc1SCC(=O)Nc1sccc1C#N,inconclusive: 35.8%
8,N#Cc1c(N)sc(=S)c2c1CCCC2,inconclusive: 41%
9,CC(C)N1CC=C2C(C#N)=C(N)C(C#N)(C#N)[C@H](c3ccoc3)[C@H]2C1,inconclusive: 45%
10,COc1ccc(CCNc2c([N+](=O)[O-])ncn2C)cc1OC,inconclusive: 37.7%
11,O=S(=O)(Nc1cc(Cl)ccn1)c1ccc(Cl)cc1,inconclusive: 61.5%
12,CC1Cn2c(nnc2-c2cccc(Cl)c2)S1 (stereo unspecified),inconclusive: 62.6%
13,O=C(COc1ccccc1)N1CCN(C(=O)c2cccs2)CC1,inactive: 17.7%
14,Cc1ccc2cc(CN(Cc3ccc4c(c3)OCO4)Cc3nnnn3Cc3ccco3)c(=O)[nH]c2c1,inconclusive: 40.9%
15,CCOC(=O)NC(C(Cl)(Cl)Cl)S(=O)(=O)c1ccccc1 (stereo unspecified),inconclusive: 34.4%
16,Cc1cc(C)c(C)c(N=Nc2nc3ccccc3n2C)c1C,inconclusive: 35%
17,O=C(Cn1c(=O)oc2ccccc21)N1CCCCC1,inconclusive: 16.5%
18,CCCCC(c1nnnn1CCOC)N1CCN(CC)CC1 (stereo unspecified),inconclusive: 50.6%
19,NC(=O)c1c(N)sc2c1CCCC2,inconclusive: 46.9%
20,c1coc(-c2cnc3ccccc3n2)c1,inactive: -5.45%
21,O=C(/C=C/c1cccs1)Nc1nccs1,inconclusive: 48.5%
22,CC1CCN(C(=O)CSc2nc3[nH]ncc3c(=O)[nH]2)CC1,inconclusive: 36.6%

# Gathered by group, the entries above with a cyano group
row,Compound,inhibition
7,Cn1cnnc1SCC(=O)Nc1sccc1C#N,inconclusive: 35.8%
8,N#Cc1c(N)sc(=S)c2c1CCCC2,inconclusive: 41%
9,CC(C)N1CC=C2C(C#N)=C(N)C(C#N)(C#N)[C@H](c3ccoc3)[C@H]2C1,inconclusive: 45%
